# Source: PubChem BioAssay AID540276 (National Center for Advancing Translational Sciences (NCATS), 2011)
# The whole screen tested about 300,000 compounds, of which about 5,400 (1.8%) were called active. The shares of active, inactive and inconclusive entries below differ from those in the screen. Calls follow the shape of the full dose curve; tested in HEK293 cells. Potencies of inconclusive entries are doubtful fits and often do not repeat.
# Assay: qHTS for inhibitors of binding or entry into cells for Marburg Virus
# Conditions: Marburg virus pseudotyped entry inhibition, cell reporter; activity change, negative = inhibition: at 37.8 µM (top of the series) unless noted
# % is scaled to controls: 0 for no effect and ±100 for the full control effect; potency is read from the fitted curve at half-maximal effect.
Compound,Potency,"activity change, negative = inhibition"
COc1ccc(NC(=O)C2CCC(CNS(=O)(=O)c3ccc(Br)s3)CC2)cc1OC (centres undefined),inactive,–
COc1ccc(C(=O)N/N=C/c2ccc3cccc(OCc4ccccc4)c3n2)cc1,"inconclusive: 29.1 µM [inhibitor, single point]",–
COc1ccc(-c2ccc(C#N)c(SCC(=O)Nc3sc4c(c3C#N)CCC4)n2)cc1OC,"inconclusive: 23.1 µM [inhibitor, partial curve, poor fit]",–
CCOc1ccc(NC(=S)NCc2cccnc2)cc1,"inconclusive: 7.94 µM [activator, partial curve, poor fit]",–
CC(C)CN(C(=O)CCC(=O)OCC(=O)N(C)c1ccccc1)c1c(N)n(CC(C)C)c(=O)[nH]c1=O,"inconclusive: 12.6 µM [activator, single point]",–
COc1ccc(NC(=O)COc2ccc(S(=O)(=O)NC3CCCCC3)cc2)cc1OC,"inconclusive: 12.6 µM [inhibitor, single point]",–
COc1ccc(OC)c(NC(=O)CSc2nc3ccccc3nc2N2CCCCC2)c1,"inconclusive: 22.4 µM [inhibitor, single point]",–
Cc1cc(/C=C2\SC(=S)NC2=O)c(C)[nH]1,"inconclusive: 10 µM [activator, partial curve, poor fit]",–
CN(CC(=O)NCc1cccnc1)S(=O)(=O)c1ccc(F)cc1,inactive,–
CS(=O)(=O)N(CC(=O)N1CCC(C(N)=O)CC1)c1ccc(Oc2ccccc2)cc1,"inconclusive: 10 µM [inhibitor, partial curve, poor fit]",–
Cc1ccc(C(=O)N2CCCCCC2)cc1Br,"inconclusive: 35.5 µM [activator, single point]",–
COc1ccc(CCNC(=O)c2ccc(S(=O)(=O)N(C)c3ccccc3)cc2)cc1OC,inactive,–
CCOC(=O)CN1C(=O)/C(=C/c2c(F)cccc2Cl)Oc2ccccc21,"inconclusive: 14.1 µM [inhibitor, partial curve, poor fit]",–
O=C(CN1C(=O)C2CCCCC2C1=O)Nc1cccc([N+](=O)[O-])c1 (centres undefined),"inconclusive: 3.16 µM [activator, partial curve, poor fit]",–
Cc1ccc(-c2c(C)sc3nc[nH]c(=O)c23)cc1C,"inconclusive: 1.26 µM [inhibitor, single point]",–
Cc1ccc(-c2ccc(CCC(=O)O)o2)cc1,inactive,–
N#C/C(=C/c1ccc([N+](=O)[O-])cc1)C(=O)Nc1ccccc1O,"inconclusive: 35.5 µM [activator, single point]",–
CN1CCN(c2ccc(C(F)(F)F)cc2N)CC1,inactive,–
Nc1nc2ccccc2n1/N=C/c1ccc2c(c1)OCO2,"inconclusive: 35.5 µM [inhibitor, single point]",–
CCOc1ccc(-n2c(=O)c3c4c(sc3n(CC(=O)Nc3cccc(C(F)(F)F)c3)c2=O)CCCCC4)cc1,"inconclusive: 5.62 µM [activator, single point]",–
Cc1cc(C)c(NC(=S)NCC2CCN(C(C)c3ccccc3)C2)c(C)c1 (centres undefined),"inconclusive: 35.5 µM [inhibitor, single point]",–
COc1ccccc1NC(=O)C(Cc1ccccc1)NS(=O)(=O)c1ccc2c(c1)c(=O)n(C)c(=O)n2C (centres undefined),inactive,–
C=CCSC1=NN2CCS(=O)(=O)N=C2S1,"inconclusive: 6.31 µM [activator, partial curve, poor fit]",–

Compound,Potency,"activity change, negative = inhibition"
Cc1c(N=C2N=C(NC(=O)c3ccc(F)cc3)c3ccccc32)c(=O)n(-c2ccccc2)n1C,"inconclusive: 35.5 µM [activator, single point]",–
COc1cc(CNCc2ccc(OC)c(OC)c2OC)cc(OC)c1,"inconclusive: 1.03 µM [inhibitor, partial curve, poor fit]",–
CNC(=O)c1ccsc1NC(=O)C1CCN(S(=O)(=O)c2ccc(Cl)s2)CC1,"inconclusive: 31.6 µM [inhibitor, single point]",–
O=C(Nc1ccc(OC(F)F)c(Cl)c1)Nc1ccc2c(c1)OCO2,inactive,–
CCCCN1C(=O)/C(=C/C=C2/CC(C)(C)CN2C)SC1=S,"inconclusive: 0.794 µM [activator, full curve, poor fit]",–
CCc1cc(C(=O)N2CCN(c3ccccn3)CC2)sc1C,"inconclusive: 35.5 µM [inhibitor, partial curve, poor fit]",–
COCCNC(=O)Cc1c(C)c2c(cc(C)c3c(C(C)(C)C)coc32)oc1=O,"inconclusive: 35.5 µM [inhibitor, single point]",–
S=c1[nH]nc(-c2cc(-c3ccccc3)n[nH]2)n1/N=C/c1c(Cl)cccc1Cl,"inconclusive: 35.5 µM [inhibitor, single point]",–
Cc1cccc(CSc2nc3c(c(=O)[nH]2)C(c2cccc(O)c2)CC(=O)N3)c1 (centres undefined),"inconclusive: 3.98 µM [inhibitor, partial curve, poor fit]",–
COc1ccc(/C=N/NC(=O)c2ccccc2OCc2ccccc2)c(OC)c1,"inconclusive: 25.1 µM [inhibitor, single point]",–
O=C(O)[C@@H]1CC(=O)n2c(nc3ccccc32)S1,inactive,–
Cc1ccc(C2=NN3C(C(=O)c4ccccc4)Oc4ccccc4C3C2)cc1 (centres undefined),inactive,–
CC(C)[C@H]1COc2cc(Br)ccc2S(=O)(=O)N1C(=O)c1ccc(F)cc1F,"inconclusive: 0.0353 µM [activator, full curve, poor fit]",–
Cc1sc(NC(=O)c2ccccc2)c(C(c2ccccn2)N2CCN(CCO)CC2)c1C (centres undefined),"inconclusive: 35.5 µM [inhibitor, single point]",–
CCOC(=O)c1c(NC(=O)c2ccoc2C)sc(C)c1C,inactive,–
Cc1c(C(=O)NCc2cccs2)oc2ccc(Br)cc12,active: 7.3 µM,–
COc1ccc(CCNC(=O)C2CCCN(c3nc4c(C)cc(C)cc4s3)C2)cc1OC (centres undefined),inactive,–
O=C(N/C(=C\c1cccnc1)C(=O)N1CCC(O)CC1)c1ccccc1,inactive,–
Cc1ccc(Nc2cc(C)nc3ccc(C)cc23)cc1,active: 11.2 µM,–
CSc1ccc2c(c1)C(N1CCN(C)CC1)Cc1ccccc1S2 (centres undefined),active: 6.31 µM,–
CCOC(=O)C1(Cc2ccccc2)CCCN(C2CCCC2)C1 (centres undefined),"inconclusive: 35.5 µM [inhibitor, single point]",–
CC(C)CNC(=O)c1cccc2c1-c1ccccc1C2=O,inactive,–
COc1ccc(C2(C(=O)Nc3nncs3)CCCC2)cc1,"inconclusive: 20.6 µM [inhibitor, single point]",–

# As entered above.
# Entry of Cc1ccc(Nc2cc(C)nc3ccc(C)cc23)cc1 under Potency: active: 11.2 µM
# Entry of CCCCN1C(=O)/C(=C/C=C2/CC(C)(C)CN2C)SC1=S under Potency: inconclusive: 0.794 µM [activator, full curve, poor fit]
# Entry of CCOC(=O)c1c(NC(=O)c2ccoc2C)sc(C)c1C under Potency: inactive
# Entry of CC(C)CNC(=O)c1cccc2c1-c1ccccc1C2=O under Potency: inactive

# More records follow.

Compound,Potency,"activity change, negative = inhibition"
COc1ccc(NS(=O)(=O)c2ccc(Oc3cccc(C(=O)O)c3)cc2)cc1,inactive,–
COc1ccccc1NC(=S)NCc1ccccn1,"inconclusive: 1.12 µM [inhibitor, partial curve, poor fit]",–
COc1cc([N+](=O)[O-])ccc1NC(=S)NC(=O)CC(C)(C)C,inactive,–
O=C(NC(c1ccc(Cl)cc1)c1c(O)ccc2ccccc12)c1ccccc1 (centres undefined),"inconclusive: 4.61 µM [inhibitor, partial curve, poor fit]",–
Cc1ccc(S(=O)(=O)N2CCC(C(=O)Nc3ccccc3N3CCCC3)CC2)c(C)c1,"inconclusive: 12.6 µM [inhibitor, partial curve, poor fit]",–
Cc1ccc(C(=O)CSC2=C(C#N)C(c3ccco3)C3=C(CCCC3=O)N2)cc1 (centres undefined),"inconclusive: 13 µM [inhibitor, partial curve, poor fit]",–
COc1ccc(OC)c(CN2CCN(C(=O)CCC(=O)c3cccs3)CC2)c1,"inconclusive: 7.94 µM [activator, partial curve, poor fit]",–
CCN(CC)C(=O)CN1C(=O)c2cccc3cccc1c23,inactive,–
COc1ccccc1C(=O)Nc1ccc(S(=O)(=O)Nc2cnc3ccccc3n2)cc1,inactive,–
COc1ccc(CNC(=O)CN(c2cc(C)cc(C)c2)S(=O)(=O)c2c(C)[nH]c(=O)[nH]c2=O)cc1,"inconclusive: 1.78 µM [inhibitor, partial curve, poor fit]",inconclusive: 40.9% [activator] [at 46.1 µM]
C=CCOc1ccc(C(=O)Nc2ccccc2C(=O)NCc2cccnc2)cc1,inactive,–
Cn1c(=O)c2c(nc(NCc3ccc4c(c3)OCO4)n2Cc2ccccc2)n(C)c1=O,inactive,–
COc1cccc(NC(=O)CN(C)C(=O)c2cc(S(=O)(=O)NCc3ccccc3)ccc2C)c1,inactive,–
O=C(NC(C(=O)N/N=C/c1cccc2ccccc12)c1n[nH]c(=O)c2ccccc12)c1ccccc1 (centres undefined),"inconclusive: 10 µM [inhibitor, partial curve, poor fit]",–
COc1ccc(OC)c(NC(=O)CCNS(=O)(=O)c2cccs2)c1,inactive,–
O=C(COC(=O)c1ccccc1O)NCCc1c[nH]c2ccccc12,"inconclusive: 0.0891 µM [activator, partial curve, poor fit]",–
Cc1cc(C)c(C#N)c(Oc2ccc(F)cc2)n1,inactive,–
Oc1ccccc1CN1CCC(C(O)(c2ccccc2)c2ccccc2)CC1,"inconclusive: 13 µM [inhibitor, partial curve, poor fit]",–
COc1ccc(CC(C(=O)Nc2cccc(F)c2)c2nn[nH]n2)c(OC)c1 (centres undefined),inactive,–
COc1cc(/C=N/NC(=O)CN(Cc2ccccc2)S(=O)(=O)c2ccc3c(c2)OCCO3)ccc1O,inactive,–
Cc1cc(C)c(S(=O)(=O)c2ccccc2)c(OC(=O)c2cc(F)c(F)cc2Cl)n1,"inconclusive: 2.82 µM [inhibitor, full curve, poor fit]",–
COc1ccc(S(=O)(=O)N2CCC(C(=O)Nc3c(F)cccc3F)CC2)cc1,"inconclusive: 6.51 µM [inhibitor, single point]",–
